# PubChem BioAssay AID1259415 (National Center for Advancing Translational Sciences (NCATS), 2018)
# Out of some 410,000 compounds screened, about 18,000 (4.4%) were called active. The shares of active, inactive and inconclusive entries below differ from those in the screen. No stated cut-off is given here; in the data, active means activity change below about -60%; inconclusive means no clear call, values can overlap the other calls; inactive means above about -39%.
# Experiment: qHTS Assay for inhibitors of the human cytomegalovirus (HCMV)
# Conditions: HFF cells, HCMV-luciferase reporter, 72 h; at 57.5 µM; hits give low values
# Procedure, shortened: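 Cell-based, HFFs, 1000 cells/well, 16 h 37C; cpds in DMSO + HCMV-luc, MOI 1 PFU/cell; 72 h 37C; OneGlo luminescence after 5 min RT; norm. to buffer vs Salinomycin 10uM.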
# On the % scale 0 is the no-effect control and ±100 the full control effect.
row,SMILES,"activity change, negative = inhibition"
1,CCc1noc(C)c1C(=O)Nc1nc(-c2ccc(OC)cc2OC)cs1,inconclusive: -50.1%
2,CCOC(=O)c1c(NC(=O)c2ccc(S(=O)(=O)N3CCC(C)CC3)cc2)sc2c1CCN(C)C2,active: -82.3%
3,NC(=O)c1c(NC(=O)c2nc(SCc3ccccc3F)ncc2Cl)sc2c1CCCC2,inactive: 9.24%
4,Cc1ccc(C2NC(=S)NC3=C2C(=O)CCC3)cc1 (centres undefined),inactive: 99.6%
5,COc1ccc(S(=O)(=O)Nc2ccc3c(c2)OCCO3)cc1OC,inactive: -21.5%
6,CC1(C)C2CCC1(C)C(OC(=O)c1ccccc1C(=O)O)C2 (centres undefined),inactive: -9.41%
7,CCOCC(=O)N1CCN(c2cccc(Cl)c2)CC1,inconclusive: -45.8%
8,COC(=O)C1=C(C)NC(=O)NC1c1ccc([N+](=O)[O-])o1 (centres undefined),inconclusive: -48.7%
9,CCCCOCCCn1c(-c2ccco2)nc2nc3ccccc3nc21,inconclusive: -52.7%
10,CCCn1c(SCc2ccc(Cl)cc2)nc2c1c(=O)[nH]c(=O)n2C,inconclusive: -43.1%
11,CCCSc1nc2c(c(=O)[nH]c(=O)n2C)n1CCc1ccccc1,inconclusive: -45.9%
12,CC1(C)CCC(=O)N2CC[C@H]3C[C@H](OC(=O)Nc4ccccc4)C[C@@H]1[C@H]32,inactive: 45.2%
13,CCCN(CCC)C(=O)CC(c1ccccc1)c1ccc(C)cc1O (centres undefined),active: -69.7%
14,Cc1nn(Cc2cccc(C(=O)N3N=C(C(F)F)CC3(O)C(F)F)c2)c(C)c1[N+](=O)[O-] (centres undefined),inconclusive: -47.1%
15,COc1ncccc1C(=O)N1CCCC(N2CCN(c3cccc(Cl)c3)CC2)C1 (centres undefined),inconclusive: -40.9%
16,CCc1ccc(CNC(=O)CN2C(=O)c3cccnc3Oc3ccc(Cl)cc32)cc1,inactive: 0%
17,Cn1c(=O)c2c(nc(OC3CCCCCC3)n2C)n(C)c1=O,inconclusive: -43.8%
18,NC(=O)COC(=O)c1cccnc1Nc1ccccc1F,active: -70.7%
19,O=c1cnnc(Nc2ccc(F)cc2)[nH]1,inconclusive: -41%
20,COCCNc1nnc(SCC(=O)Nc2sc3c(c2C(=O)c2ccccc2)CCCC3)s1,active: -85.7%
21,Cc1ccccc1NC(=O)C(C)OC(=O)CNS(=O)(=O)c1ccc(C#N)cc1 (centres undefined),inactive: -23.6%

row,SMILES,"activity change, negative = inhibition"
1,CCS(=O)(=O)N1Cc2ccccc2CC1C(=O)Nc1nnc(SCc2ccc(C#N)cc2)s1 (centres undefined),active: -66.3%
2,COc1ncccc1C(=O)N1CCCC(N2CCN(c3ccc(F)cc3)CC2)C1 (centres undefined),inconclusive: -54.4%
3,O=C(O)c1cccc(S(=O)(=O)N2CCCC(c3nc4c(nnn4Cc4ccc(F)cc4)c(=O)[nH]3)C2)c1 (centres undefined),inconclusive: -44.8%
4,COc1cc(C2C3=C(CCCC3=O)Nc3[nH]n(-c4ccccc4)c(=O)c32)ccc1O (centres undefined),inactive: -26.7%
5,Cc1cc(C)c2c(N)c(C(=O)c3ccc(Cl)cc3)sc2n1,inconclusive: -43.3%
6,O=c1nccc(SCc2ccc(Cl)cc2Cl)[nH]1,inconclusive: -57.5%
7,N#CC1=C(SCC(=O)c2ccc(Cl)cc2)NC2=C(C(=O)CCC2)C1c1ccco1 (centres undefined),inactive: -39.9%
8,Cc1ccc(C(=O)NNC(=O)c2csc(N3CCOCC3)n2)s1,inactive: -15.2%
9,CCOc1ccc(CCN2C(=S)N([C@@H](Cc3ccc(O)cc3)CN3CCC[C@@H]3CN3C(=S)NC[C@@H]3CC(C)C)C[C@@H]2Cc2ccc(O)cc2)cc1,active: -63.4%
10,Cc1ccc(NC(=O)Cn2cc(C(=O)C3CC3)c3ccccc32)cc1,inconclusive: -43.9%
11,COc1ccc(-c2noc(CN(C(=O)COc3cc(C)c(Br)c(C)c3)C(C)C)n2)cc1,inconclusive: -49.3%
12,O=C(CCCN1C(=O)/C(=C\c2cccs2)SC1=S)Nc1ccc(C(=O)O)cc1,inconclusive: -45.9%
13,c1csc(C(c2nnnn2C2CCCCC2)N2CCCC3(CCCCC3)C2)c1 (centres undefined),inconclusive: -49.2%
14,Cc1nn(Cc2ccc(Cl)cc2)c(C)c1NC(=O)C(c1ccccc1)c1ccccc1,active: -64%
15,CC[C@]12c3[nH]c4ccc(Cl)cc4c3CCN1C(=O)[C@@H](CC(=O)NCC13CC4CC(CC(C4)C1)C3)C[C@@H]2C(=O)N1CCN(C(=O)c2ccco2)CC1,active: -106%
16,O=C(c1ccccc1CCc1ccccc1)N1CCOCC1,active: -104%
17,O=C(c1ccc([N+](=O)[O-])s1)N1CCN(c2ncccn2)CC1,inactive: -16.7%
18,Cc1ccc(C)c(S(=O)(=O)N2CCN(Cc3ccc(O)c4ncccc34)CC2)c1,active: -100%
19,Cc1ccc(-c2nc3scc(CCNC(=O)Cc4ccc(Cl)cc4)n3n2)cc1,inactive: -20.6%
20,COc1ccc(-n2cccc2/C=C2/NC(=O)N(c3cccc(Cl)c3)C2=O)cc1,inactive: 40.8%
21,COc1ccc(C)cc1NC(=O)Nc1ccc2c(c1)CCC2,inactive: 18.7%

row,SMILES,"activity change, negative = inhibition"
1,CN1CCN(C(=O)CCN2C(=O)S/C(=C/c3ccc(Cl)cc3)C2=O)CC1,inconclusive: -42.7%
2,CC(C)(C)c1ccc(S(=O)(=O)Nc2cccnc2)cc1,inconclusive: -41.6%
3,O=c1c2cccnc2n(Cc2ccccc2F)c(=O)n1Cc1ccc(F)cc1,inactive: -0.449%
4,CCOC(=O)[C@H]1[C@H]2COc3ccc(OC)cc3[C@@H]2N2C(=O)CN(Cc3ccc(OC)cc3)C(=O)[C@@]12C,inactive: 2%
5,CC(C)C(=O)Nc1cccc(-c2nc3ncccc3o2)c1,inactive: 95.8%
6,Cc1nn(Cc2ccc(C(=O)NC(C)(C)C)o2)c(C)c1Br,active: -79.8%
7,CCNCc1cc(Cl)c(OCc2ccccc2)c(OCC)c1,inconclusive: -52.8%
8,COc1cccc(CNC(=O)C(NS(=O)(=O)c2cccs2)C(C)C)c1 (centres undefined),inconclusive: -41.4%
9,C/C(=N\NC(=O)c1ccccc1)c1c(C)[nH]n(-c2ccccc2)c1=O,active: -97.4%
10,CCc1ccc(N2C(=O)C3C(C2=O)N2CCCN2C3c2ccccc2)cc1 (centres undefined),inactive: -10.7%
11,COc1ccccc1NC(=O)c1cc(S(=O)(=O)NCCc2ccccc2)ccc1F,inconclusive: 0%
12,N#CC(c1ccc(Cl)cc1)c1ncc(C(F)(F)F)cc1Cl (centres undefined),inactive: 8.07%
13,Cc1ccc(CN2CCSc3ccc(C(=O)N4CCN(c5ccc(Cl)cc5)CC4)cc32)cc1,inconclusive: -47.2%
14,COc1ccc(S(=O)(=O)/C(C#N)=C/Nc2ccccc2F)cc1,inconclusive: -48.4%
15,O=C(COc1ccc(S(=O)(=O)N2CCOCC2)cc1)NCc1ccccn1,inactive: -11.7%
16,COc1ccc(CNC(=O)C/C(C)=N/NC(=O)COc2ccc(C)cc2Br)cc1,inconclusive: -48.4%
17,O=C(Nc1ccc(OC(F)(F)F)cc1)NC1CCC(Oc2ccc(C(=O)O)cc2)CC1 (centres undefined),inconclusive: -55%
18,COc1ccc(C2C(=O)N(C3CCCCC3)CC(=O)N2CCC2=CCCCC2)cc1 (centres undefined),inconclusive: -48.8%
19,CN(C)C(=O)c1cc(C(=O)c2ccccc2C(F)(F)F)c[nH]1,inconclusive: -48.2%
20,CC(C)[N+](C)(C)CC(O)CN(c1ccccc1)c1ccccc1 (centres undefined),inconclusive: -44.7%
21,COc1ccc2c(c1)C(=O)CC(O)(C(F)F)O2 (centres undefined),inconclusive: -47.8%

# Some values from the list.
# O=c1c2cccnc2n(Cc2ccccc2F)c(=O)n1Cc1ccc(F)cc1 | activity change, negative = inhibition: inactive: -0.449%
# O=C(COc1ccc(S(=O)(=O)N2CCOCC2)cc1)NCc1ccccn1 | activity change, negative = inhibition: inactive: -11.7%
# COc1ccc(S(=O)(=O)/C(C#N)=C/Nc2ccccc2F)cc1 | activity change, negative = inhibition: inconclusive: -48.4%
# CC(C)(C)c1ccc(S(=O)(=O)Nc2cccnc2)cc1 | activity change, negative = inhibition: inconclusive: -41.6%

# 2 of the compounds above, as tab-separated lines:
row	SMILES	activity change, negative = inhibition
2	CCOC(=O)c1c(NC(=O)c2ccc(S(=O)(=O)N3CCC(C)CC3)cc2)sc2c1CCN(C)C2	active: -82.3%
10	CCc1ccc(N2C(=O)C3C(C2=O)N2CCCN2C3c2ccccc2)cc1 (centres undefined)	inactive: -10.7%

# Next structures

row,SMILES,"activity change, negative = inhibition"
1,CN(c1ccccc1)S(=O)(=O)c1cccc(NC(=O)c2nn(C)c(=O)c3ccccc23)c1,inactive: -25.5%
2,Cc1ccc2c(c1)C(=O)C(=O)N2Cc1ccc(Br)cc1,active: -76.3%
3,CCCN1C2CCCC1CC(NC(=O)c1cc(OC)c(OC)c(OC)c1)C2 (centres undefined),active: -104%
4,O=C(c1cnn2c(C(F)F)cc(-c3ccccc3)nc12)N1CCc2ccccc2C1,inconclusive: -51.3%
5,COc1ccc2[nH]c3c(N4CCC(O)(c5cccc(C(F)(F)F)c5)CC4)ncnc3c2c1,inconclusive: -44%
6,Cc1cccc(N2C(=O)N(Cc3cc(=O)n4ccccc4n3)c3ccccc3S2(=O)=O)c1,inconclusive: -46.8%
7,Cc1sc2ncnc(N3CCN(S(=O)(=O)c4ccc(F)cc4)CC3)c2c1C,inconclusive: -58.7%
8,Cc1cc(C)cc(OCC(O)CN2CCC(CN3C(=O)c4cccc5cccc(c45)C3=O)CC2)c1 (centres undefined),active: -101%
9,COc1ccc(CNC(=O)Cn2nc3c(cc2=O)CCCC3)cc1,inconclusive: -41.9%
10,N=c1c2c(n(Cc3ccc(F)cc3)c3c1CCC3)CCCC2,active: -99.6%
11,CCCS(=O)(=O)c1nc(S(=O)(=O)c2ccc(C)cc2)c(N(CC)CC)s1,inconclusive: -43%
12,C/C(=N\Nc1ccc(Cl)cc1)c1ccccn1,inactive: 40.5%
13,CN(C(=O)COC(=O)c1nc(Cl)c(Cl)c(Cl)c1Cl)C1CCS(=O)(=O)C1 (centres undefined),active: -98.9%
14,CCOc1nc2c(c(=O)n(C)c(=O)n2C)n1Cc1ccccc1Cl,active: -92.5%
15,CCN1CCN(Cc2ccc(NC(=O)c3cc(NC(=O)c4nccnc4N)cc(OC)c3)cc2C(F)(F)F)CC1,inactive: -1.34%
16,COC(=O)C1=C(C(=O)OC)[C@@H]2Nc3ccccc3[C@@]23C[C@@H](C(=O)OC)N(C(=O)C2CCC2)C3=N1,inactive: -3.28%
17,Nc1c(N(CCO)C(=O)COc2ccc(Cl)cc2)c(=O)[nH]c(=O)n1Cc1ccccc1,inconclusive: -43.3%
18,CCOC(=O)c1ccc(NC(=O)C2(c3ccc(OC)cc3)CCCC2)cc1,inactive: -29.8%
19,O=C(Nc1cccc(C(=O)O)c1)/C(=C\c1ccccc1)NC(=O)c1ccccc1,inconclusive: -42.2%
20,CSc1c(CC(=O)Nc2ccccc2C(F)(F)F)n(Cc2ccccc2)c2ccccc12,inactive: -24.4%
21,Cc1cccc(N2CCN(c3ccc4cc(S(=O)(=O)N5CCCCC5)ccc4n3)CC2)c1C,inconclusive: -41.9%
